PubChem BioAssay AID743454 – Peter MacCallum Cancer Centre – 2014
Aim: 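Knock-downs lowering viability or raising caspase 3/7 activity in vorinostat-treated resistant cells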 (primary screen). Cells: human HCT116-VR colon cancer cells, selected for vorinostat resistance. Knock-down reagent: siRNA pool against human genes, 40 nM siRNA pool. Time to read-out: vorinostat for 24 h, read-out about 72 h after transfection. Treatment: vorinostat at 2.5 µM final. Measured: 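Two measures, CellTiter-Fluor viability and luminescent caspase 3/7 activity, each as fold change against same-plate mock wells, mean of duplicates, then screen-wide robust z-score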. Scale: viability robust z-score: higher = more viable cells than screen typical; caspase robust z-score: higher = more caspase 3/7 activity than screen typical. Active means: 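Hits are knock-downs in viability class RV1/RV2 or caspase class CA1/CA2, excluding ones that killed cells in the no-drug cell-count arm; hits then retested with single siRNAs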.
The deposit covers about 18,000 reagents; shown is a random part of them. 450 of all reagents (2.5%) were called active. 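Single biological run; no consistent viability z cut-off exists, so the class columns, not z-scores, define the calls.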 Entries without a mark were called inactive. Reagent sequences are not shown.

Target gene	viability hit class	caspase hit class	viability robust z-score	caspase robust z-score
PKD1L3	no change	no change	-0.44	4.12
CYP4F22	no change	no change	0.03	-0.3
RWDD2A	no change (active)	CA1 (caspase activation)	0.56	5.83
SH3TC1	no change	no change	0.24	-0.93
VPS33B	no change	no change	-0.79	-0.02
HAND1	no change	no change	1.2	2.73
GPR173	no change	no change	-0.15	1.01
ALAD	no change	no change	-0.52	-0.16
SCAP	no change	no change	0.68	0.12
CEBPG	no change	no change	1.34	-0.38
SSX5	no change	no change	0.16	-0.28
CHAF1A	no change	no change	-1.58	-0.57
SPC24	no change	no change	-1.15	4.03
ANKRD40	no change	no change	-0.08	0.18
FUT7	no change	no change	-0.8	-0.16
EYA1	no change	no change	0.66	0.15
OR10W1	no change	no change	-1.45	0.58
CSTA	no change	no change	-1.97	0.52
PDZD7	no change	no change	-0.25	0.62
SLC41A3	no change	no change	1.15	-0.22
ANTKMT	no change	no change	-1.72	0.88
TTC21A	no change	no change	1.22	1.62
ZNF546	no change	no change	0.1	-0.94
ALDH1A3	no change	no change	-2.03	1.59
CLCA1	no change	no change	-0.74	0.54
DPH1	no change	no change	-0.21	0.66
USP28	no change	no change	-0.74	0.16

Next part, starting with the last 6 of the part before.
Target gene	viability hit class	caspase hit class	viability robust z-score	caspase robust z-score
TTC21A	no change	no change	1.22	1.62
ZNF546	no change	no change	0.1	-0.94
ALDH1A3	no change	no change	-2.03	1.59
CLCA1	no change	no change	-0.74	0.54
DPH1	no change	no change	-0.21	0.66
USP28	no change	no change	-0.74	0.16
H2BC9	no change	no change	-0.15	1.28
ZNF33B	no change	no change	0.7	0.63
PAK4	no change	no change	0.32	-0.42
RANBP9	no change	no change	-0.85	0.76
RPL18	no change	no change	-5.16	-0.96
OR2M4	no change	no change	0.34	-0.16
GPAA1	no change	no change	-1.57	1.01
IGSF8	no change	no change	0.91	-1.18
KAT7	no change	no change	-0.7	-0.24
ATXN7L1	no change	no change	1.73	1.44
TMEM44	no change	no change	-1.76	-0.96
CCDC162P	no change	no change	0.52	-0.93
CCDC43	no change	no change	-0.18	0.72
ZNF436-AS1	no change	no change	-0.39	1.56
IL12A	no change	no change	0.78	2.5
ABI1	no change	no change	-1.19	0.44
PPBP	no change	no change	1.22	-0.98
CAT	no change	no change	1.8	-0.08
GIGYF2	no change	no change	-1.24	0.1
POLR2I	RV2 (reduced viability) (active)	no change	-2.99	2.71
TBL1X	no change	no change	0.9	-0.26
ETS2	no change	no change	0.38	1.98
SIGLEC15	no change	no change	1.13	0.75
FBXO27	no change	no change	-0.63	1.62
KRT33A	no change	no change	0.28	-1.05
IPMK	no change	no change	-0.62	3.32
SMDT1	no change	no change	1.27	2.71
LYPD1	no change	no change	0.42	0.46
MIX23	no change	no change	-0.66	0.92
SLC10A5	no change	no change	0.16	0.26
MCM3AP	no change	no change	-2.28	4.94
GABRA1	no change	no change	-0.69	1.59
EFNB3	no change	no change	-2.49	2.91
MPZL2	no change	no change	-0.07	-0.42
SNX22	no change	no change	0.9	-0.74
FBXO36	no change	no change	0.29	0.45
NPIPB7	no change	no change	-0.03	-0.74
CD3E	no change	no change	0.72	-1.17
KLC1	no change	no change	0.04	0.38
ERCC6	no change	no change	-0.77	2.28
CTAG1A	no change	no change	1.39	0.46
PACSIN3	no change	no change	1.78	-0.99
ARHGAP18	no change	no change	-1.94	0.02
SMG9	no change	no change	0.81	-0.03
MDH1	no change	no change	-0.38	-0.26
FCHO2	no change	no change	-0.3	-0.62
